Source: PubChem BioAssay AID1259405 (NCATS, 2018)

Aim: 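Knock-downs that lift recombinant protein yield in hamster ovary cells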 (primary screen)
Cell system: Chinese hamster CHO-K1 ovary cells with stable secreted eGFP expression
Reagent: single siRNA against mouse genes, 0.8 pmol siRNA per well (2 µl of 400 nM stock)
Duration: 3 days
Measurement: 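Per-well intracellular GFP measured by laser scanning cytometry, plus viability from ATP luminescence, each relative to plate median of non-targeting control wells, in %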
Scale: GFP, % of control: higher = more GFP per well, higher productivity; viability (ATP), % of control: higher = more viable cells (more ATP)
Active means: 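a knock-down is called active if GFP reaches 120% or more of non-targeting control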
Shown is one part, drawn at random, of about 50,000 reagents. About 4,000 of them (8%) were called active. 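Mouse siRNA library applied to hamster cells; one well for each siRNA.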 The numbers tell different reagents against one gene apart.

Against Crabp2 (cellular retinoic acid binding protein II) #1, the values are GFP, % of control 86.5; viability (ATP), % of control 99.4; inactive. For Crabp2 (cellular retinoic acid binding protein II) #2, the values are GFP, % of control 69.6; viability (ATP), % of control 57.5; inactive. For Crabp2 (cellular retinoic acid binding protein II) #3 the deposit lists GFP, % of control 99.9; viability (ATP), % of control 82.5; inactive. Against Gcnt1 (glucosaminyl (N-acetyl) transferase 1, core 2) #1 the deposit lists GFP, % of control 137; viability (ATP), % of control 111; active. Gcnt1 (glucosaminyl (N-acetyl) transferase 1, core 2) #2 gave GFP, % of control 57.1; viability (ATP), % of control 84.9; inactive. Silencing of Gcnt1 (glucosaminyl (N-acetyl) transferase 1, core 2) #3 gave: GFP, % of control 78.5; viability (ATP), % of control 83; inactive.

Against Acaa2 (acetyl-CoA acyltransferase 2) #1, the values are GFP, % of control 97.6; viability (ATP), % of control 72.8; inactive. Knock-down of Acaa2 (acetyl-CoA acyltransferase 2) #2 came out at: GFP, % of control 84.9; viability (ATP), % of control 113; inactive. Silencing of Acaa2 (acetyl-CoA acyltransferase 2) #3 resulted in: GFP, % of control 129; viability (ATP), % of control 142; active. With knock-down of Fosb (Fos B proto-oncogene, AP-1 transcription factor subunit) #1, the screen gave GFP, % of control 94; viability (ATP), % of control 81; inactive. For Fosb (Fos B proto-oncogene, AP-1 transcription factor subunit) #2 the deposit lists GFP, % of control 69.1; viability (ATP), % of control 68.9; inactive. With knock-down of Fosb (Fos B proto-oncogene, AP-1 transcription factor subunit) #3, the screen gave GFP, % of control 88.9; viability (ATP), % of control 79.2; inactive.

Knock-down of Lyz2 (lysozyme 2) #1 resulted in: GFP, % of control 117; viability (ATP), % of control 108; inactive. Silencing of Lyz2 (lysozyme 2) #2 gave: GFP, % of control 86.2; viability (ATP), % of control 92.2; inactive. With knock-down of Lyz2 (lysozyme 2) #3, the record shows GFP, % of control 89.1; viability (ATP), % of control 64; inactive. After knock-down of Xlr3c (X-linked lymphocyte-regulated 3C) #1, the record shows GFP, % of control 134; viability (ATP), % of control 62.4; active. Knock-down of Xlr3c (X-linked lymphocyte-regulated 3C) #2 came out at: GFP, % of control 104; viability (ATP), % of control 88.5; inactive. With knock-down of Xlr3c (X-linked lymphocyte-regulated 3C) #3, the record shows GFP, % of control 83.8; viability (ATP), % of control 102; inactive.

Knock-down of Pgap1 (post-GPI attachment to proteins 1) #1 gave: GFP, % of control 135; viability (ATP), % of control 114; active. Against Pgap1 (post-GPI attachment to proteins 1) #2 the deposit lists GFP, % of control 125; viability (ATP), % of control 75.7; active. Against Pgap1 (post-GPI attachment to proteins 1) #3 the deposit lists GFP, % of control 75.2; viability (ATP), % of control 63.7; inactive.

Part of the list above in another layout.
target gene | reagent no. | GFP, % of control | viability (ATP), % of control | activity call
Crabp2 (cellular retinoic acid binding protein II) | 2 | 69.6 | 57.5 | inactive
Crabp2 (cellular retinoic acid binding protein II) | 3 | 99.9 | 82.5 | inactive
Gcnt1 (glucosaminyl (N-acetyl) transferase 1, core 2) | 1 | 137 | 111 | active

Continued.
With knock-down of Sike1 (suppressor of IKBKE 1) #1, the screen gave GFP, % of control 71.3; viability (ATP), % of control 63.1; inactive. Sike1 (suppressor of IKBKE 1) #2 scored GFP, % of control 65.6; viability (ATP), % of control 81.6; inactive. Sike1 (suppressor of IKBKE 1) #3 scored GFP, % of control 132; viability (ATP), % of control 132; active. With knock-down of Rbmxl2 (RNA binding motif protein, X-linked-like 2) #1 the results were GFP, % of control 52.4; viability (ATP), % of control 69.7; inactive. After knock-down of Rbmxl2 (RNA binding motif protein, X-linked-like 2) #2, the record shows GFP, % of control 84.8; viability (ATP), % of control 92.9; inactive. Silencing of Rbmxl2 (RNA binding motif protein, X-linked-like 2) #3 came out at: GFP, % of control 77.2; viability (ATP), % of control 84.3; inactive.

After knock-down of Tmco1 (transmembrane and coiled-coil domains 1) #1, the record shows GFP, % of control 76.6; viability (ATP), % of control 78.5; inactive. For Tmco1 (transmembrane and coiled-coil domains 1) #2 the deposit lists GFP, % of control 77.8; viability (ATP), % of control 44.8; inactive. Knock-down of Tmco1 (transmembrane and coiled-coil domains 1) #3 came out at: GFP, % of control 50.3; viability (ATP), % of control 51.8; inactive. After knock-down of Cc2d2a (coiled-coil and C2 domain containing 2A) #1, the record shows GFP, % of control 52.2; viability (ATP), % of control 80.5; inactive. Depletion of Cc2d2a (coiled-coil and C2 domain containing 2A) #2 gave: GFP, % of control 116; viability (ATP), % of control 71.3; inactive. After knock-down of Cc2d2a (coiled-coil and C2 domain containing 2A) #3, the record shows GFP, % of control 126; viability (ATP), % of control 136; active.

Depletion of Aqp1 (aquaporin 1) #1 gave: GFP, % of control 86.3; viability (ATP), % of control 84.5; inactive. After knock-down of Aqp1 (aquaporin 1) #2, the record shows GFP, % of control 108; viability (ATP), % of control 72.1; inactive. Depletion of Aqp1 (aquaporin 1) #3 came out at: GFP, % of control 102; viability (ATP), % of control 84.4; inactive. Slc35d1 #1 showed GFP, % of control 73.5; viability (ATP), % of control 110; inactive. Depletion of Slc35d1 #2 came out at: GFP, % of control 86; viability (ATP), % of control 67.8; inactive. Against Slc35d1 #3, the entry reads GFP, % of control 60.4; viability (ATP), % of control 61.9; inactive.

Knock-down of Egr4 (early growth response 4) #1 gave: GFP, % of control 66.1; viability (ATP), % of control 81.7; inactive. After knock-down of Egr4 (early growth response 4) #2, the record shows GFP, % of control 67.7; viability (ATP), % of control 88.3; inactive.
